Assay results as given in patent US9918972B2, “Treatment of leukemia with artemisinin derivatives and combinations with other antineoplastic agents” (UNIVERSITY OF MARYLAND, BALTIMORE, priority 2014, dated 2018).

Test system: MOLM14 cells
Experiment: alamarBlue cytotoxicity assay, single-drug IC50, 48 h
Assay type: cell-based
Settings: Homo sapiens, MOLM-14
Experimental: Peripheral wells were filled with sterile water to minimize the effects of evaporation. Plates were incubated for ˜48 hours at 37° C. with 5% CO2, then 1/10 volume (10 μl according to the manufacturer's instructions. Fluorescence was measured using a VICTOR X3 multilabel plate reader (PerkinElmer, Waltham, Mass.). Background fluorescence was subtracted from fluorescence of all experimental wells. The effect of each drug concentration on viability was calculated as a percentage of the result for vehicle-treated cells. […] IC50 (concentration that inhibits growth by 50%) values were calculated using CompuSyn software (ComboSyn, Paramus, N.J.). […] In Table 1, KOPN8 and MOLM14 cell lines were treated with a range of concentrations of each drug for 48 h then cytotoxicity was measured via alamarBlue assay. Results were normalized to cells treated with vehicle (≦0.5% DMSO) alone. IC50s were calculated using CompuSyn software and represent the means of at least three experiments performed in triplicate. […] Drug interactions were typically most favorable (more additive/synergistic or less antagonistic) at higher doses.

CO[C@@H]1[C@H](N(C)C(=O)c2ccccc2)C[C@H]2O[C@]1(C)n1c3ccccc3c3c4c(c5c6ccccc6n2c5c31)C(=O)NC4 [MID, midostaurin]
IC50: 11 nM
